Test results taken from the supplement of paper PMC12823440, “Inhibitors supercharge kinase turnover through native proteolytic circuits” (Nature, 2025).
Counter-ions that a name gives are not always drawn. This is one part of the list. The calls rarely recur for the same compound in another form.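 Kinases, fused to nanoluciferase, were expressed in K562 cells; luminescence was measured every 4 h from 2 to 18 h as percent of control (DMSO = 100%, positive control = 0%). A time point is decreased if signal falls significantly (2 sigma). Hits were called by the authors by a rule that is not shown; the count of time points alone does not decide it.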

Amino acid sequences for entries named in this document (tags omitted).
UniProt P29317, whole entry: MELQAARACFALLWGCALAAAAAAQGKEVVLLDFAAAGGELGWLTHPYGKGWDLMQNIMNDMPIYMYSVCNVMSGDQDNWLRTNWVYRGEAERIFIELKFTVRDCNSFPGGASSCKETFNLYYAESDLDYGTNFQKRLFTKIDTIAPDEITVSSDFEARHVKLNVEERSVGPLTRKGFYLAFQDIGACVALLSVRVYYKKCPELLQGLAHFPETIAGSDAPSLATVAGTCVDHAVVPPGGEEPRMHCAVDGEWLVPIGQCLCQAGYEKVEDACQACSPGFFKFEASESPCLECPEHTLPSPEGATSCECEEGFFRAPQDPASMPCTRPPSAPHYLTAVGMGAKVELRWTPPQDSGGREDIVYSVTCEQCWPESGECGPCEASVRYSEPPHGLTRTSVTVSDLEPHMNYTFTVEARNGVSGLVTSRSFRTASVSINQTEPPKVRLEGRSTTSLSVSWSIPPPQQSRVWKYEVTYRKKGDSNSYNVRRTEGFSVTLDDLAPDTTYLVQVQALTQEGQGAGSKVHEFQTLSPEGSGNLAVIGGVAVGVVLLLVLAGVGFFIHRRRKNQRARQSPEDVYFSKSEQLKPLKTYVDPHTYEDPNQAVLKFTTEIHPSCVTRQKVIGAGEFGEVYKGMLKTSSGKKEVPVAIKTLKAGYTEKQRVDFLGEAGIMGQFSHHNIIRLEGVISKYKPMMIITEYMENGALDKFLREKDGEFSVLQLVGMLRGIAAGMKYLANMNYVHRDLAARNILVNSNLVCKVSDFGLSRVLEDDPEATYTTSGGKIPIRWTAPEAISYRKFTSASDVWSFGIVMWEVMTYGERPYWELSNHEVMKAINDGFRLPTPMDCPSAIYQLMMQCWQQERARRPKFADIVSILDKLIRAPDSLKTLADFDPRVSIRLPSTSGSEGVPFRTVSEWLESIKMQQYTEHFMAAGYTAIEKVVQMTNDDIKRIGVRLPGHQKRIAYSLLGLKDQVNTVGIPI
UniProt P21860, whole entry: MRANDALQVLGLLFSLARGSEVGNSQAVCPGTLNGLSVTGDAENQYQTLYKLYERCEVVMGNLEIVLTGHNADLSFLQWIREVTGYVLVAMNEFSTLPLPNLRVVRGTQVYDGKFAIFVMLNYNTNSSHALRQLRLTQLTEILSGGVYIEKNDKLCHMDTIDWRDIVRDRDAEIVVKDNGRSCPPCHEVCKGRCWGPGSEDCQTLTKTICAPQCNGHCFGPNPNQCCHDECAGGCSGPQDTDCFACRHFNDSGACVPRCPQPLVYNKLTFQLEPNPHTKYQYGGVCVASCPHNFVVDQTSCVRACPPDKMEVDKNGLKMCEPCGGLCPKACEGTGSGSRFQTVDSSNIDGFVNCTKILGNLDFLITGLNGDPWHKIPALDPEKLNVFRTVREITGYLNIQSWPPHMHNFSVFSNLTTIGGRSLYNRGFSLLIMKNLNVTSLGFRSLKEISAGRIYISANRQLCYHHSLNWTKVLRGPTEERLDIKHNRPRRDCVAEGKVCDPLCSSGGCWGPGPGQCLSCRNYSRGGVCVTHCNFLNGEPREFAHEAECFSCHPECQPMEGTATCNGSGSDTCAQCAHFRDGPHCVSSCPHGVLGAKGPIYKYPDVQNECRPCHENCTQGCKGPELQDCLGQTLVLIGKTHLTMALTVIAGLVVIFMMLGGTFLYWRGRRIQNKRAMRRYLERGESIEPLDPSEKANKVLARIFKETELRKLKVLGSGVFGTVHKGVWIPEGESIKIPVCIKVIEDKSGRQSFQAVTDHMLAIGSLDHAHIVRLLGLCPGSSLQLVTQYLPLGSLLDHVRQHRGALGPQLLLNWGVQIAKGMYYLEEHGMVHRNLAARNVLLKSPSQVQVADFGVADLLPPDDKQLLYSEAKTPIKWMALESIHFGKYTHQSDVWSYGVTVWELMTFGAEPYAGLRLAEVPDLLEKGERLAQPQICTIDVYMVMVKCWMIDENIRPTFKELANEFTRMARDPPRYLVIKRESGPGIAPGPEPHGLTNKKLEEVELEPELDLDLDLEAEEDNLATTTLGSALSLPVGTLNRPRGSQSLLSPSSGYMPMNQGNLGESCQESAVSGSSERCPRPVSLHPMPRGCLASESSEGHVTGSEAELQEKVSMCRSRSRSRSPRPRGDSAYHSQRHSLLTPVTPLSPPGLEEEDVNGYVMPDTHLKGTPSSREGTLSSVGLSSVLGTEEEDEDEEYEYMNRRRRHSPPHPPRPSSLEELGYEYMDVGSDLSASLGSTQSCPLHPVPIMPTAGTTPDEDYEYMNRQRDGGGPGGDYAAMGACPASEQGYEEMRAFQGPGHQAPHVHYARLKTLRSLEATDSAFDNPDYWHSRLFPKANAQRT
UniProt Q15303, whole entry R711C: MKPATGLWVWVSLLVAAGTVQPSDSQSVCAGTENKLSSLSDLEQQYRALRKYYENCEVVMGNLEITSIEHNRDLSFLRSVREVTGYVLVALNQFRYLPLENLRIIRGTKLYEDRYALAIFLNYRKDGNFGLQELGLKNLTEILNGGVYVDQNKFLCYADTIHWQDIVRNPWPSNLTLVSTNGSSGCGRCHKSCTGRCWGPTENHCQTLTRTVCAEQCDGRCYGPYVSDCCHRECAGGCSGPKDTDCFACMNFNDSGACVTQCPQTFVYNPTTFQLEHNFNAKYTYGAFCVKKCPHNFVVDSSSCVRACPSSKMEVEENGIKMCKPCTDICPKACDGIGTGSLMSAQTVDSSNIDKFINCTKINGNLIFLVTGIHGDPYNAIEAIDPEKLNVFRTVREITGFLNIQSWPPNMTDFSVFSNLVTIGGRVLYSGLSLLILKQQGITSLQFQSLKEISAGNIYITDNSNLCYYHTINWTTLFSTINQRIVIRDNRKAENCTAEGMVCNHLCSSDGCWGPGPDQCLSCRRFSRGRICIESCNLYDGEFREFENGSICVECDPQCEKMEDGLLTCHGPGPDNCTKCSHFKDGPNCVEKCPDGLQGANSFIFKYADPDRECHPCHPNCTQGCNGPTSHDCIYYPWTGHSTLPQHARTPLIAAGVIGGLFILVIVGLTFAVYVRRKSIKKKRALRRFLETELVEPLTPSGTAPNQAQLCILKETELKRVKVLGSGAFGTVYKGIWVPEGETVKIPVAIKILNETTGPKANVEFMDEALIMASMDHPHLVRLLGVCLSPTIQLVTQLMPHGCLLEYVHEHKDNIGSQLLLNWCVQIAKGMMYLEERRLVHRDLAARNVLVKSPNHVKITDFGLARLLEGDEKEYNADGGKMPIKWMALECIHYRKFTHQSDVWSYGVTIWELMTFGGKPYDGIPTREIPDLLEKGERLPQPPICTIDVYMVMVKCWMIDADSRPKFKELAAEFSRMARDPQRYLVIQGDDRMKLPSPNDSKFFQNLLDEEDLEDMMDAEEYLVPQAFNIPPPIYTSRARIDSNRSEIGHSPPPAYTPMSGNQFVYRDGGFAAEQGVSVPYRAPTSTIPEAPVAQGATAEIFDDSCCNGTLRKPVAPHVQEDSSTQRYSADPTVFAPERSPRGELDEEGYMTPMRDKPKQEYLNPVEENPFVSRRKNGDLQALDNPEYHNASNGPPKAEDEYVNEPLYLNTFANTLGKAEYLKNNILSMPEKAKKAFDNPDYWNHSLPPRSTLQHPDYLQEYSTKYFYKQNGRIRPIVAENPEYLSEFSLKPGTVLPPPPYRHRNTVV

What was measured:
Assay in all cases: kinase-Nluc reporter destabilization hit call (1 = scored as downregulated) (binary); higher = compound decreases kinase abundance
Settings in all cases: K562; 2-18 h
EGFR = EGFR (UniProt P00533)
EGFR_G719S = EGFR_G719S (UniProt P00533)
EGFR_G719S_T790M = EGFR_G719S_T790M (UniProt P00533)
EGFR_L718V = EGFR_L718V (UniProt P00533)
EGFR_L858R = EGFR_L858R (UniProt P00533)
EGFR_L861Q = EGFR_L861Q (UniProt P00533)
EGFR_T790M = EGFR_T790M (UniProt P00533)
EPHA2 = EPHA2 (UniProt P29317)
ERBB3 = ERBB3 (UniProt P21860)
[1] = target: ERBB4_R711C (clone: ERBB4_mut) (UniProt Q15303)

Row | Structure (SMILES) | kinase-Nluc reporter destabilization hit call (EGFR) | kinase-Nluc reporter destabilization hit call (EGFR_G719S) | kinase-Nluc reporter destabilization hit call (EGFR_G719S_T790M) | kinase-Nluc reporter destabilization hit call (EGFR_L718V) | kinase-Nluc reporter destabilization hit call (EGFR_L858R) | kinase-Nluc reporter destabilization hit call (EGFR_L861Q) | kinase-Nluc reporter destabilization hit call (EGFR_T790M) | kinase-Nluc reporter destabilization hit call (EPHA2) | kinase-Nluc reporter destabilization hit call (ERBB3) | kinase-Nluc reporter destabilization hit call [1]
1 | CN(C)Cc1ccc(-c2cnn3c(-c4cccc(NC(=O)c5cccc(C(F)(F)F)c5)c4)ccnc23)cc1 (2.5 µM) | inactive: 0 | inactive: 0 | inactive: 0 | inactive: 0 | inactive: 0 | inactive: 0 | inactive: 0 | inactive: 0 | inactive: 0 | inactive: 0
2 | CCCS(=O)(=O)Nc1ccc(F)c(C(=O)c2c[nH]c3ncc(Cl)cc23)c1F (10 µM) | inactive: 0 | inactive: 0 | inactive: 0 | inactive: 0 | inactive: 0 | inactive: 0 | inactive: 0 | inactive: 0 | inactive: 0 | inactive: 0
3 | CNC(=O)c1cc(Oc2ccc(NC(=O)Nc3cc(C(C)(C)C)nn3-c3ccc4ncccc4c3)c(F)c2)ccn1 [Rebastinib] (2.5 µM) | inactive: 0 | inactive: 0 | inactive: 0 | inactive: 0 | inactive: 0 | inactive: 0 | inactive: 0 | inactive: 0 | inactive: 0 | inactive: 0
4 | COc1cc(Oc2ccnc3cc(OC)c(OC)cc23)ccc1NC(=O)NC(C)c1nccs1 (centres undefined) (2.5 µM) | inactive: 0 | inactive: 0 | inactive: 0 | inactive: 0 | inactive: 0 | inactive: 0 | inactive: 0 | inactive: 0 | inactive: 0 | inactive: 0
5 | CC[C@H](CO)Nc1nc(NCc2ccccc2)c2ncn(C(C)C)c2n1 [Seliciclib] (10 µM) | inactive: 0 | inactive: 0 | inactive: 0 | inactive: 0 | inactive: 0 | inactive: 0 | inactive: 0 | inactive: 0 | inactive: 0 | inactive: 0
6 | Cc1ncc(-c2ccnc(Nc3ccc(S(C)(=O)=O)cc3)n2)n1C(C)C (2.5 µM) | inactive: 0 | inactive: 0 | inactive: 0 | inactive: 0 | inactive: 0 | inactive: 0 | inactive: 0 | inactive: 0 | inactive: 0 | inactive: 0
7 | CCN1CCN(Cc2ccc(C(=O)Nc3ccc(C)c(Oc4ccc5c(c4)CC(=O)N5)c3)cc2C(F)(F)F)CC1 (2.5 µM) | inactive: 0 | inactive: 0 | inactive: 0 | inactive: 0 | inactive: 0 | inactive: 0 | inactive: 0 | inactive: 0 | inactive: 0 | inactive: 0
8 | O=C(c1ccc(-c2ccc(Cl)cc2)o1)N(Cc1ccccn1)c1ccc(N2CCNCC2)cc1 [MK2-IN-1 (hydrochloride)] (10 µM) | inactive: 0 | inactive: 0 | inactive: 0 | inactive: 0 | inactive: 0 | inactive: 0 | inactive: 0 | inactive: 0 | inactive: 0 | 
9 | COc1ccc2c(C(=O)Nc3ccc(NC(=O)c4nn(C5CCN(C(=O)CC(C)(C)C#N)CC5)c5ccc(F)cc45)cc3Cl)cnn2c1 [Src Inhibitor 3] (2.5 µM) | inactive: 0 | inactive: 0 | inactive: 0 | inactive: 0 | inactive: 0 | inactive: 0 | inactive: 0 | inactive: 0 | inactive: 0 | inactive: 0
10 | COc1cc(N2CCC(N)CC2)ccc1Nc1ncc(Cl)c(-c2c[nH]c3ccccc23)n1 (2.5 µM) | inactive: 0 | inactive: 0 | inactive: 0 | inactive: 0 | inactive: 0 | inactive: 0 | inactive: 0 | inactive: 0 | inactive: 0 | inactive: 0
11 | Cn1nc(C(C)(C)C)cc1NC(=O)Nc1ccc(Oc2ccncc2)cc1 (10 µM) | inactive: 0 | inactive: 0 | inactive: 0 | inactive: 0 | inactive: 0 | inactive: 0 | inactive: 0 | inactive: 0 | inactive: 0 | inactive: 0
12 | COc1ccc(COc2ccc(Cc3cnc(N)nc3N)cc2OC)cc1 (10 µM) | inactive: 0 | inactive: 0 | inactive: 0 | inactive: 0 | inactive: 0 | inactive: 0 | inactive: 0 | inactive: 0 | inactive: 0 | inactive: 0
13 | Cc1ccc2c(Nc3cccc(OC(F)(F)F)c3)nccc2c1Nc1ncccc1-c1ncnc2[nH]cnc12 (10 µM) | inactive: 0 | inactive: 0 | inactive: 0 | inactive: 0 | inactive: 0 | inactive: 0 | inactive: 0 | inactive: 0 | inactive: 0 | inactive: 0
14 | Cc1ccc(NC(=O)c2cccc(N(C)C)c2)cc1NC(=O)c1ccc(O)cc1 (10 µM) | inactive: 0 | inactive: 0 | inactive: 0 | inactive: 0 | inactive: 0 | inactive: 0 | inactive: 0 | inactive: 0 | inactive: 0 | inactive: 0
15 | CN1CCN(C(=O)c2ccc(-c3ccc4c(C=O)c(O)ccc4c3)s2)CC1 (2.5 µM) | inactive: 0 | inactive: 0 | inactive: 0 | inactive: 0 | inactive: 0 | inactive: 0 | inactive: 0 | inactive: 0 | inactive: 0 | inactive: 0
16 | COCc1c(-c2ccc(NC(=O)Nc3cc(C(F)(F)F)ccc3F)c(F)c2)c2c(N)ncnn2c1CN1CCOCC1 (2.5 µM) | inactive: 0 | inactive: 0 | inactive: 0 | inactive: 0 | inactive: 0 | inactive: 0 | inactive: 0 | inactive: 0 | inactive: 0 | inactive: 0
17 | C=CC(=O)N1CCN(CCCn2c(=O)c(-c3c(Cl)c(OC)cc(OC)c3Cl)cc3cnc(NC)nc32)CC1 (10 µM) | inactive: 0 | inactive: 0 | inactive: 0 | inactive: 0 | inactive: 0 | inactive: 0 | inactive: 0 | inactive: 0 | inactive: 0 | inactive: 0
18 | Cc1cc(F)c(C(=O)Nc2cccc(-c3nncn3C(C)C)n2)cc1-n1cnc(C2CC2)c1 [Selonsertib] (10 µM) | inactive: 0 | inactive: 0 | inactive: 0 | inactive: 0 | inactive: 0 | inactive: 0 | inactive: 0 | inactive: 0 | inactive: 0 | inactive: 0
19 | COc1ccc(F)c(F)c1C(=O)c1cnc(NC2CCN(S(C)(=O)=O)CC2)nc1N (2.5 µM) | inactive: 0 | inactive: 0 | inactive: 0 | inactive: 0 | inactive: 0 | inactive: 0 | inactive: 0 | inactive: 0 | inactive: 0 | inactive: 0
20 | CN1CCN(S(=O)(=O)c2ccc(-c3cnc(N)c(C(=O)Nc4cccnc4)n3)cc2)CC1 (10 µM) | inactive: 0 | inactive: 0 | inactive: 0 | inactive: 0 | inactive: 0 | inactive: 0 | inactive: 0 | inactive: 0 | inactive: 0 | inactive: 0
21 | Cc1[nH]c(/C=C2\C(=O)Nc3ccc(S(=O)(=O)Cc4c(Cl)cccc4Cl)cc32)c(C)c1C(=O)N1CCC[C@@H]1CN1CCCC1 (2.5 µM) | inactive: 0 | inactive: 0 | inactive: 0 | inactive: 0 | inactive: 0 | inactive: 0 | inactive: 0 | inactive: 0 | inactive: 0 | inactive: 0
22 | COc1cc2ncnc(Nc3ccc(O)cc3)c2cc1OC (10 µM) | inactive: 0 | inactive: 0 | inactive: 0 | inactive: 0 | inactive: 0 | inactive: 0 | inactive: 0 | inactive: 0 | inactive: 0 | inactive: 0
23 | O=C(NOC[C@H](O)CO)c1ccc(F)c(F)c1Nc1ccc(I)cc1F (2.5 µM) | inactive: 0 | inactive: 0 | inactive: 0 | inactive: 0 | inactive: 0 | inactive: 0 | inactive: 0 | inactive: 0 | inactive: 0 | inactive: 0
24 | O=C(/C=C/c1ccc(O)c(O)c1)c1ccc(O)cc1O [Butein] (10 µM) | inactive: 0 | inactive: 0 | inactive: 0 | inactive: 0 | inactive: 0 | inactive: 0 | inactive: 0 | inactive: 0 | inactive: 0 | inactive: 0
25 | C=CC(=O)N[C@H]1COC[C@H]1Nc1ncc2cc(-c3c(Cl)c(OC)cc(OC)c3Cl)c(=O)n(C)c2n1 (10 µM) | inactive: 0 | inactive: 0 | inactive: 0 | inactive: 0 | inactive: 0 | inactive: 0 | inactive: 0 | inactive: 0 | inactive: 0 | inactive: 0
26 | CC(C)=CC/C=C(\C)[C@H]1CC[C@]2(C)[C@@H]1[C@H](O)C[C@@H]1[C@@]3(C)CC[C@H](O[C@@H]4O[C@H](CO)[C@@H](O)[C@H](O)[C@H]4O[C@@H]4O[C@H](CO)[C@@H](O)[C@H](O)[C@H]4O)C(C)(C)[C@@H]3CC[C@]12C [Ginsenoside Rg5] (10 µM) | inactive: 0 | inactive: 0 | inactive: 0 | inactive: 0 | inactive: 0 | inactive: 0 | inactive: 0 | inactive: 0 | inactive: 0 | inactive: 0
27 | C=CC(=O)N1CCC[C@@H](n2nc(-c3ccc(Oc4ccccc4)cc3)c(C(N)=O)c2N)C1 [Btk inhibitor 2] (10 µM) | inactive: 0 | inactive: 0 | inactive: 0 | inactive: 0 | inactive: 0 | inactive: 0 | inactive: 0 | inactive: 0 | inactive: 0 | inactive: 0
28 | COc1cc(CCc2cc(-c3nc4ccc(N5CCN(C)CC5)cc4[nH]3)n[nH]2)cc(OC)c1 (10 µM) | inactive: 0 | inactive: 0 | inactive: 0 | inactive: 0 | inactive: 0 | inactive: 0 | inactive: 0 | inactive: 0 | active: 1 | inactive: 0
29 | CC(C)(/C=C(\C#N)C(=O)N1CCC[C@@H](n2nc(-c3ccc(Oc4ccccc4)cc3F)c3c(N)ncnc32)C1)N1CCN(C2COC2)CC1 (2.5 µM) | inactive: 0 | inactive: 0 | inactive: 0 | inactive: 0 | inactive: 0 | inactive: 0 | inactive: 0 | inactive: 0 | inactive: 0 | inactive: 0

Some of these compounds in order of heavy-atom count, rising:
Row | Structure (SMILES) | kinase-Nluc reporter destabilization hit call (EGFR) | kinase-Nluc reporter destabilization hit call (EGFR_G719S) | kinase-Nluc reporter destabilization hit call (EGFR_G719S_T790M) | kinase-Nluc reporter destabilization hit call (EGFR_L718V) | kinase-Nluc reporter destabilization hit call (EGFR_L858R) | kinase-Nluc reporter destabilization hit call (EGFR_L861Q) | kinase-Nluc reporter destabilization hit call (EGFR_T790M) | kinase-Nluc reporter destabilization hit call (EPHA2) | kinase-Nluc reporter destabilization hit call (ERBB3) | kinase-Nluc reporter destabilization hit call [1]
24 | O=C(/C=C/c1ccc(O)c(O)c1)c1ccc(O)cc1O [Butein] (10 µM) | inactive: 0 | inactive: 0 | inactive: 0 | inactive: 0 | inactive: 0 | inactive: 0 | inactive: 0 | inactive: 0 | inactive: 0 | inactive: 0
23 | O=C(NOC[C@H](O)CO)c1ccc(F)c(F)c1Nc1ccc(I)cc1F (2.5 µM) | inactive: 0 | inactive: 0 | inactive: 0 | inactive: 0 | inactive: 0 | inactive: 0 | inactive: 0 | inactive: 0 | inactive: 0 | inactive: 0
18 | Cc1cc(F)c(C(=O)Nc2cccc(-c3nncn3C(C)C)n2)cc1-n1cnc(C2CC2)c1 [Selonsertib] (10 µM) | inactive: 0 | inactive: 0 | inactive: 0 | inactive: 0 | inactive: 0 | inactive: 0 | inactive: 0 | inactive: 0 | inactive: 0 | inactive: 0
